Data as given in PubChem BioAssay AID1053208 (Peter MacCallum Cancer Centre, 2014)

Test: 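Find knock-downs that sensitise mouse osteosarcoma cells to doxorubicin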 (primary screen)
System: mouse osteosarcoma cells, early-passage culture from an engineered mouse model of fibroblastic bone tumour
Reagents: siRNA pool against mouse genes, 40 nM
Time to read-out: about 120 h (48 h before drug, then 72 h with drug)
Challenge: doxorubicin 100 nM for 72 h, roughly 30-40% inhibitory dose
Detection: 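Luminescent ATP signal taken as viability with or without 100 nM doxorubicin for 72 h; mean of two wells set against non-targeting siRNA and turned into robust z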
Reading the numbers: viability z-score with doxorubicin and doxorubicin viability vs non-targeting: higher = more viable cells under doxorubicin; viability z-score without drug: higher = more viable cells with knock-down alone; z-score of drug to no-drug ratio: higher = less drug sensitisation by knock-down
Rule for the call: 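Called active if knock-down leaves viability unchanged without drug (z within -2 to 2) but lowers it with doxorubicin (z at or under -2)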
In all, the deposit lists about 17,000 reagents; this is an unselected part. Over the whole deposit, 788 (4.7%) were called active. 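Calls rest on z-score classes alone; an extra cut-off of viability at most 70% of control was not applied to them.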 A number with no mark means an inactive call.

The first 2 records, ahead of the listing:
| target gene | combined z-score class | viability z-score with doxorubicin | viability z-score without drug | z-score of drug to no-drug ratio | doxorubicin viability vs non-targeting |
| --- | --- | --- | --- | --- | --- |
| Polr3f | no change with or without drug | 1.46 | 0.51 | 1.24 | 1.07 |
| Or2a54 | low cell count without drug only | -1.12 | -2.02 | 0.34 | 0.84 |

The list itself, repeating the preview:
| target gene | combined z-score class | viability z-score with doxorubicin | viability z-score without drug | z-score of drug to no-drug ratio | doxorubicin viability vs non-targeting |
| --- | --- | --- | --- | --- | --- |
| Polr3f | no change with or without drug | 1.46 | 0.51 | 1.24 | 1.07 |
| Or2a54 | low cell count without drug only | -1.12 | -2.02 | 0.34 | 0.84 |
| Or5g27 | no change with or without drug | -0.34 | 0.51 | -0.56 | 0.91 |
| Epb41 | no change with or without drug | 0.45 | -0.51 | 1.01 | 0.98 |
| Diaph2 | no change with or without drug | 1.57 | -0.17 | 1.91 | 1.08 |
| Ubash3b | no change with or without drug | 1.35 | 0.17 | 1.35 | 1.06 |
| Zfp62 | no change with or without drug | 0.79 | 1.85 | -0.34 | 1.01 |
| Krt90 | no change with or without drug | -0.45 | -0.34 | -0.11 | 0.9 |
| Lrif1 | no change with or without drug | 1.46 | 1.18 | 0.79 | 1.07 |
| Sh2b3 | no change with or without drug | 0.56 | -0.34 | 0.9 | 0.99 |
| Omt2b | no change with or without drug | 0.45 | -0.84 | 1.24 | 0.98 |
| Idh3b | low cell count with doxorubicin only (active) | -2.25 | -0.17 | -2.14 | 0.74 |
| Trp63 | no change with or without drug | -0.9 | 1.18 | -1.57 | 0.86 |
| Diablo | no change with or without drug | -0.22 | -0.84 | 0.45 | 0.92 |
| Stim1 | high cell count without drug only | -1.12 | 2.19 | -2.25 | 0.84 |
| Mob3c | low cell count with doxorubicin only (active) | -2.7 | -1.69 | -1.8 | 0.7 |
| Tifa | no change with or without drug | 0.67 | 0.51 | 0.45 | 1 |
| BCLP2 | no change with or without drug | 0.11 | -0.17 | 0.34 | 0.95 |
| Vpreb1b | no change with or without drug | 0.45 | 0.17 | 0.45 | 0.98 |
| Prkab2 | high cell count with and without drug | 2.02 | 2.53 | 0.45 | 1.12 |
